Source: PubChem BioAssay AID504834 (National Center for Advancing Translational Sciences (NCATS), 2011)
In all, about 320,000 compounds went through this assay and about 22,000 (6.9%) were called active. Inconclusive results, whose numbers are uncertain, are shown with a selection of clear calls. Calls follow the shape of the dose curve; as a rule, active = well fitted inhibition curve with a large enough effect; inconclusive = small, poorly fitted or top-dose-only effect, or another doubt; inactive = no such curve, though single readings can be large or run the other way. Where the call is inconclusive, the potency comes from a doubtful curve fit.

Test: Primary qHTS for delayed death inhibitors of the malarial parasite plastid, 96 hour incubation
Details: P. falciparum luciferase reporter growth; series mostly up to 28.7 µM; activity change, negative = inhibition: at the top concentration
In short: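 P. falciparum expressing integrated firefly luciferase, in erythrocytes at 2% hematocrit, 0.05% parasitemia, incubated with compounds 96 h at 37 C, 5% CO2. Growth inhibition read as loss of luminescence; two-generation exposure targets delayed-death apicoplast inhibitors.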
% is scaled to controls: 0 for no effect and ±100 for the full control effect; potency is read from the fitted curve at half-maximal effect.

SMILES	activity change, negative = inhibition	Potency
CCOC(=O)Nc1ccc(=O)n(Cc2c(Cl)cccc2Cl)c1	inactive: -7.18%	
COc1cccc(-c2noc(-c3ccc(Br)o3)n2)c1	inactive: 33.4%	
CC1(C)CSC(=NCc2ccccc2)N1C(=O)c1cccc([N+](=O)[O-])c1	inactive: 4.46%	
Cc1cc(Cl)cc(C)c1OCCNCc1ccccc1		inconclusive: 18.5 µM [inhibitor, single point]
O=C(c1cc2ccccc2oc1=O)N(Cc1ccccc1F)C1CCS(=O)(=O)C1 (stereo not drawn)		active: 5.22 µM
Cc1ccc(/C=N/N2CCN(Cc3cccc4ccccc34)CC2)s1	inactive: 0.735%	
O=C(NCC1CCCO1)C(=O)N/N=C\c1ccc2c(c1)OCO2 (stereo not drawn)		inconclusive: 4.15 µM [inhibitor, partial curve, poor fit]
Nc1nc(SCC(=O)N2CCOCC2)n[nH]1		inconclusive: 0.0465 µM [inhibitor, full curve, poor fit]
CCOCCn1ccc2c(OCC(=O)Nc3ccccc3OC)cccc2c1=O		inconclusive: 11.7 µM [inhibitor, single point]
COc1ccc(NC(=O)Cn2nc(C)c3ccccc3c2=O)cc1		inconclusive: 18.5 µM [inhibitor, single point]
CCOC(=O)c1ccc2nc(C(F)(F)F)[nH]c(=O)c2c1		inconclusive: 10.4 µM [inhibitor, single point]
Clc1nssc1=Nc1nncs1	inactive: 83.9%	
O=C(Nc1ccncc1)c1ccc2c(c1)C(=O)N(C1CCCCC1)C2=O		inconclusive: 18.5 µM [inhibitor, single point]
COc1c(OC(C)=O)ccc(/C=C/c2ccc3ccccc3n2)c1[N+](=O)[O-]		inconclusive: 5.22 µM [inhibitor, partial curve, poor fit]
CC(C)CCC1(CCNC(C)c2cccs2)CCOC(C)(C)C1 (stereo not drawn)		active: 13.1 µM
c1ccc(-c2c[n+]3c(n2-c2ccccc2)SCC3)cc1		active: 0.415 µM
O=C(O)CC(NC(=O)c1cccc([N+](=O)[O-])c1)c1ccc2c(c1)OCO2 (stereo not drawn)		inconclusive: 16.5 µM [inhibitor, partial curve, poor fit]
O=C(COc1ccccc1Cc1ccccc1)NCCCN1CCOCC1	inactive: -7.13%	
Fc1ccc(-c2nnc(CSc3nnc4ccccn34)o2)cc1	inactive: 129%	
CN(CC(=O)Nc1ccc(F)c(F)c1)S(=O)(=O)c1cccc2cccnc12		active: 13.1 µM
CN1c2ccccc2C(O)=C(C(=S)Nc2ccc(F)c(Cl)c2)S1(=O)=O		inconclusive: 10.4 µM [inhibitor, partial curve]
COc1ccc(S(=O)(=O)NC(C)C(=O)N2CCCCCC2)cc1 (stereo not drawn)	inactive: -3.52%	
CC(=O)C(Sc1nnnn1-c1ccccc1)C(C)=O	inactive: 22.1%	
CCN(CC)CCCNC(=S)N(Cc1cccnc1)Cc1cc2cccc(C)c2[nH]c1=O		inconclusive: 10.4 µM [inhibitor, partial curve, poor fit]

SMILES	activity change, negative = inhibition	Potency
c1ccc(-n2ncc3c(NCc4cccnc4)ncnc32)cc1	inactive: 19.8%	
CCOCCCn1c(=NC(C)=O)c(C(=O)OCC)cc2c(=O)n3ccccc3nc21		inconclusive: 0.104 µM [inhibitor, full curve, poor fit]
COc1ccc(S(=O)(=O)NC(C)C(=O)NCC2CCCO2)cc1OC (stereo not drawn)		inconclusive: 10.4 µM [inhibitor, single point]
Cc1onc(-c2ccccc2)c1C(=O)NCc1ccc2c(c1)OCO2		inconclusive: 0.0029 µM [inhibitor, full curve, poor fit]
COC(=O)c1ccc(OCC(=O)c2ccccc2OC)cc1		inconclusive: 18.5 µM [inhibitor, single point]
CCN(CC)S(=O)(=O)c1ccc(OC)c(NC(=O)C(C)Oc2ccc3c(C)cc(=O)oc3c2)c1 (stereo not drawn)		active: 9.28 µM
COCCN1C(=O)c2oc3c(C)cc(C)cc3c(=O)c2C1c1cccc(O)c1 (stereo not drawn)		inconclusive: 16.5 µM [inhibitor, single point]
CCOc1ccc(C(=O)NCC(C)C)cc1	inactive: 281%	
Fc1ccc(-c2cc(C(F)(F)F)nc(NCc3cccs3)n2)cc1		inconclusive: 10.4 µM [inhibitor, single point]
O=C(COc1ccc(Br)cc1)NCCCN1CCCC1=O		inconclusive: 18.5 µM [inhibitor, single point]
CC(=O)N1CCOc2ccc(S(=O)(=O)N3CCC(C(=O)NCc4ccc(F)cc4)CC3)cc21		inconclusive: 18.5 µM [inhibitor, single point]
Cc1ccc(NC(=O)/C=C/c2ccc([N+](=O)[O-])s2)cc1		inconclusive: 9.28 µM [inhibitor, partial curve, poor fit]
CC1(C)OC2OC(C(=O)N/N=C/c3cc(Br)ccc3O)C3OC(C)(C)OC3C2O1 (stereo not drawn)	inactive: 7.83%	
COc1cccc(NC(=O)C2CCN(S(=O)(=O)c3ccc4c(c3)NC(=O)C(C)S4)CC2)c1 (stereo not drawn)	inactive: 25.7%	
CC(c1ccco1)N(C(=O)c1cc(Cl)cc(Cl)c1)c1ccccn1 (stereo not drawn)		inconclusive: 11.7 µM [inhibitor, partial curve, poor fit]
Cc1cccc(C(=O)N2CCN=C2SCc2ccc([N+](=O)[O-])cc2)c1	inactive: 29.3%	
C=CCOc1c(Cl)cc(CNc2nccs2)cc1OC		inconclusive: 18.5 µM [inhibitor, single point]
OCC1(Cc2ccc(Cl)cc2)CCN(Cc2ccc(Oc3ncccn3)cc2)CC1	inactive: 0.125%	
Cc1ccc(S(=O)(=O)N2CCOCC2)cc1NC(=O)COC(=O)Cn1c(C)csc1=O	inactive: 5.19%	
COc1cc(Br)c(CNc2cc(C)ccc2C)cc1OC	inactive: 15.2%	
COC(=O)c1ccc(NC(=O)c2ccc(NS(=O)(=O)c3cccc4cccnc34)cc2)cc1	inactive: 23.4%	
CCc1c(C)c2cc(Cl)c(O)c(CN3CCCCC3)c2oc1=O	inactive: -21.5%	
C#CCOCCOCCOCCNc1nc(N2CCN(C(=O)Cn3cc(CCCCN)nn3)CC2)nc(N2CCN(C(=O)[C@H]([C@@H](C)CC)n3cc(CCCN=C(N)N)nn3)CC2)n1		inconclusive: 0.147 µM [inhibitor, full curve, poor fit]
COC(=O)c1ccccc1Sc1ncnc2onc(C)c12		inconclusive: 18.5 µM [inhibitor, single point]

2 consecutive entries already listed, for reference:
SMILES	activity change, negative = inhibition	Potency
COc1ccc(S(=O)(=O)NC(C)C(=O)NCC2CCCO2)cc1OC (stereo not drawn)		inconclusive: 10.4 µM [inhibitor, single point]
Cc1onc(-c2ccccc2)c1C(=O)NCc1ccc2c(c1)OCO2		inconclusive: 0.0029 µM [inhibitor, full curve, poor fit]
